# Laboratory results published in paper PMC5814800.
# Tests used:
# Assay in all cases: two-hybrid; bacterial two-hybrid (adenylate cyclase T18 and T25 fusions) in E. coli BTH101; colony colour on LB agar with IPTG and X-Gal, 30°C, 24–48 h
# [1] = target: T1, T18 fused to ϕC31 integrase aa 1–203 (pEY114) (Streptomyces phage ϕC31) (UniProt Q9T221)
# T1 sequence: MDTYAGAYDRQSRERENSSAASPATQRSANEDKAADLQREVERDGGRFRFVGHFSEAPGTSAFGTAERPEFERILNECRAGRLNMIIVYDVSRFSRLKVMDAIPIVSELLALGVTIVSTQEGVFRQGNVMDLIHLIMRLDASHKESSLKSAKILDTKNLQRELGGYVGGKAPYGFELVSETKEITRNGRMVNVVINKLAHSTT
# [2] = target: T2, T18 fused to ϕC31 integrase aa 404–605 (pEY117) (Streptomyces phage ϕC31) (UniProt Q9T221)
# T2 sequence: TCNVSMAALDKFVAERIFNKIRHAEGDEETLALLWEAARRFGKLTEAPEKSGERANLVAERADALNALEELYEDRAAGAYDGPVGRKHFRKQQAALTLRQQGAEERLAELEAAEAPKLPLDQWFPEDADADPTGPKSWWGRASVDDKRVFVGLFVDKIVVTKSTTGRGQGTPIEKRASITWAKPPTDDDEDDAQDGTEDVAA
# [3] = target: T3, T18 fused to ϕC31 integrase aa 200–407 (pEY118) (Streptomyces phage ϕC31) (UniProt Q9T221)
# T3 sequence: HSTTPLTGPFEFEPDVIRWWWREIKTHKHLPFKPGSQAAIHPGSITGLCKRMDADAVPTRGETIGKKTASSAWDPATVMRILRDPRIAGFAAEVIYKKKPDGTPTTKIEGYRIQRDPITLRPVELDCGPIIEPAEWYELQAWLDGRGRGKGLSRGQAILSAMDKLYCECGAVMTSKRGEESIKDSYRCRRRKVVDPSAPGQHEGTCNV
# [4] = target: T4, T18 fused to ϕC31 integrase aa 200–605 (pEY116) (Streptomyces phage ϕC31) (UniProt Q9T221)
# T4 sequence: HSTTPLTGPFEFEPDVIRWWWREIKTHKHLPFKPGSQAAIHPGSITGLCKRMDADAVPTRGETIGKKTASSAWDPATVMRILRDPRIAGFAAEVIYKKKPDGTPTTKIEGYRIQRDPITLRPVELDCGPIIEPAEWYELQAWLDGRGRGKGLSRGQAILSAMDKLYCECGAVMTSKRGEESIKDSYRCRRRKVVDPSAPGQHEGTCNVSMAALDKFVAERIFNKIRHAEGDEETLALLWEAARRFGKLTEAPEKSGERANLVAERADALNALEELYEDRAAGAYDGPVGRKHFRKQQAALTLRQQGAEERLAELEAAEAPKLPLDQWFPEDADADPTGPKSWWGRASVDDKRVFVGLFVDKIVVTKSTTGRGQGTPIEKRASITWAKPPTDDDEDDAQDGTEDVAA
# [5] = target: T5, wild-type ϕC31 integrase fused to T18 (Int-T18 fusion, pEY111) (Streptomyces phage ϕC31) (UniProt Q9T221)
# T5 sequence: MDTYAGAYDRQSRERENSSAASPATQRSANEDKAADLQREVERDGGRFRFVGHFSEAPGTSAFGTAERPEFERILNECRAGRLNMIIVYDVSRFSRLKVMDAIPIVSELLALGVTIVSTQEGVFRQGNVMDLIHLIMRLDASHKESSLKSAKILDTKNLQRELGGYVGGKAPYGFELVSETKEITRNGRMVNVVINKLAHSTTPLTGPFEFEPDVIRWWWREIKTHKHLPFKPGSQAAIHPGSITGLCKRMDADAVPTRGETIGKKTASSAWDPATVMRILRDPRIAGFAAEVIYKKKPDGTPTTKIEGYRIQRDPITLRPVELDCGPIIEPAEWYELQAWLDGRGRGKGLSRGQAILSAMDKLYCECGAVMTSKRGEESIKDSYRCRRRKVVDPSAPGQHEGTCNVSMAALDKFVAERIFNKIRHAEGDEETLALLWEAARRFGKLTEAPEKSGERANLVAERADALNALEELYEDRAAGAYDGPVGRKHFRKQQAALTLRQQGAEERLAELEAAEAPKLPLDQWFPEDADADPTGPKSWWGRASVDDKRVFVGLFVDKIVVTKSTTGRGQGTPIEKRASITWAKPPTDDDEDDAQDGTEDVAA
# [6] = target: T6, T18 fused to ϕC31 integrase aa 1–407 (pEY115) (Streptomyces phage ϕC31) (UniProt Q9T221)
# T6 sequence: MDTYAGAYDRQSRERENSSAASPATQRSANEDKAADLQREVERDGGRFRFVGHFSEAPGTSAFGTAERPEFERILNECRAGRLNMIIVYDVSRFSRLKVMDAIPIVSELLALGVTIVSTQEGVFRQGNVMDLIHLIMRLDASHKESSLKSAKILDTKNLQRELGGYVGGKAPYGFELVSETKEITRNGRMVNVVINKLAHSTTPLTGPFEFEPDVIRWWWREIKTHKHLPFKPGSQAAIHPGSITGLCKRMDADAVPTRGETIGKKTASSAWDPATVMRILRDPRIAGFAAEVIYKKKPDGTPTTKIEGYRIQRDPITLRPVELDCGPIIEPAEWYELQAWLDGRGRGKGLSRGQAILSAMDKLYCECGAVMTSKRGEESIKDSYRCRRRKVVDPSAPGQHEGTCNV
# [7] = target: T7, T18 fused to full length ϕC31 integrase (aa 1–605; pEY110) (Streptomyces phage ϕC31) (UniProt Q9T221)
# T7 sequence: T5 sequence
substance,measurement,setting,value
T25-ϕC31 gp3 (wild type) fusion protein (Streptomyces phage ϕC31),binding,[1],no binding
same,binding,[2],binds
same,binding,[3],no binding
same,binding,[4],binds
same,binding,[5],binds
same,binding,[6],no binding
same,binding,[7],binds

# No constants are given. Whether binding was seen depends on the method and setting. For some of these results: Binding can be weak; no strength is given. Where a sequence is shown, tags or fusion partners need not be part of it.
